The list is a part of this screen's results and no random one: it is rich in T/C values a quarter to a half above the control, in often repeated tests (any T/C) and in doses without a T/C. Other doses and runs of a compound stand elsewhere. T/C gives the treated animals as a percentage of the vehicle group. Some doses have a count of surviving animals in place of a T/C: the source files T/C as zero there, which appears to mark a toxic dose or a test without result, not a measured value. Some doses without a T/C left all or most animals alive at the check, yet need not have been tolerated: the source hardly ever lists a survival T/C far under the control, and the zero likely stands for such cases as well. Counts of survivors are from the toxicity check (mostly the fifth day) where no day follows; animals may have died later. Schedule codes are those of the source, taken here to give the interval after Q, in days (D) or hours (H), and the number of doses after X. Where survival is the endpoint, the PubChem record calls one and a half times the control and up active, and a quarter to a half above the control has no call in these data; cut-offs in other NCI protocols can differ. Some T/C values carry the count of animals alive at the toxicity check (mostly the fifth day); without a count, all were alive then. Some doses were run more than once; the results are listed from low to high.
Test system: P388 leukemia ip, CD2F1 mice, survival T/C
Experiment: NCI In Vivo Anticancer Drug Screen. Data for tumor model P388 Leukemia (intraperitoneal) in CD2F1 (CDF1) mice
Settings: T/C endpoint: median survival time, higher T/C = longer survival
[1] = dose: 25.0 mg/kg/injection, schedule: Q01DX009 (ip), vehicle: saline
[2] = dose: 100.0 mg/kg/injection, schedule: Q01DX009 (ip), vehicle: Klucel (hydroxypropylcellulose) (HPC)
[3] = dose: 200.0 mg/kg/injection, schedule: Q01DX005 (ip), vehicle: saline with Tween-80
[4] = dose: 120.0 mg/kg/injection, schedule: Q01DX005 (ip), vehicle: Klucel (hydroxypropylcellulose) (HPC)
[5] = dose: 240.0 mg/kg/injection, schedule: Q01DX005 (ip), vehicle: Klucel (hydroxypropylcellulose) (HPC)
[6] = dose: 200.0 mg/kg/injection, schedule: Q01DX009 (ip), vehicle: Klucel (hydroxypropylcellulose) (HPC)
[7] = dose: 120.0 mg/kg/injection, schedule: Q01DX005 (ip), vehicle: saline with Tween-80
[8] = dose: 240.0 mg/kg/injection, schedule: Q01DX005 (ip), vehicle: saline with Tween-80
[9] = dose: 100.0 mg/kg/injection, schedule: Q01DX005 (ip), vehicle: saline
[10] = dose: 200.0 mg/kg/injection, schedule: Q01DX005 (ip), vehicle: saline
[11] = dose: 50.0 mg/kg/injection, schedule: Q01DX009 (ip), vehicle: saline
[12] = dose: 100.0 mg/kg/injection, schedule: Q01DX009 (ip), vehicle: saline
[13] = dose: 200.0 mg/kg/injection, schedule: Q01DX009 (ip), vehicle: saline
[14] = dose: 50.0 mg/kg/injection, schedule: Q01DX005 (ip), vehicle: Klucel (hydroxypropylcellulose) (HPC)

## c1ccc([P+](CC[P+](c2ccccc2)(c2ccccc2)c2ccccc2)(c2ccccc2)c2ccccc2)cc1
dose: 3.13 mg/kg/injection, schedule: Q01DX009 (ip), vehicle: saline
  survivor count: 5 of 6
dose: 6.25 mg/kg/injection, schedule: Q01DX009 (ip), vehicle: saline
  survivor count: 2 of 6
dose: 12.5 mg/kg/injection, schedule: Q01DX009 (ip), vehicle: saline
  survivor count: 0 of 6
[1]
  survivor count: 0 of 6

## [Cl][Co][Cl].[O-][n+]1c2ccccc2nc2ccccc21
dose: 100.0 mg/kg/injection, schedule: Q04DX003 (ip), vehicle: saline with Tween-80
  T/C: 126 % of control [5 of 6 alive]
dose: 200.0 mg/kg/injection, schedule: Q04DX003 (ip), vehicle: saline with Tween-80
  survivor count: 0 of 6
dose: 400.0 mg/kg/injection, schedule: Q04DX003 (ip), vehicle: saline with Tween-80
  survivor count: 0 of 6

## NC(=S)N/N=C\C=N\Nc1ccccc1
dose: 400.0 mg/kg/injection, schedule: Q04DX003 (ip), vehicle: Klucel (hydroxypropylcellulose) (HPC)
  survivor count: 1 of 6

## Nc1nc(Cl)nc2c1ncn2C1OC(CO)C(O)C1O (configuration not stated)
dose: 12.5 mg/kg/injection, schedule: Q01DX010 (ip), vehicle: carboxymethylcellulose (CMC)
  T/C: 130 % of control

## C=C1C(=O)OC2C1C(OC(=O)/C(C)=C/C)CC1(CO1)C1C(O)C3OC3(C)C21O (configuration not stated)
dose: 100.0 mg/kg/injection, schedule: Q04DX002 (ip), vehicle: saline with Tween-80
  survivor count: 4 of 6
dose: 200.0 mg/kg/injection, schedule: Q04DX002 (ip), vehicle: saline with Tween-80
  survivor count: 1 of 6

## C=C[C@]1(C)C[C@@H](OC(=O)CO)[C@@]2(C)[C@H](C)CC[C@]3(CCC(=O)[C@H]32)[C@@H](C)[C@@H]1O
[2]
  T/C: 94, 98 [5 of 6 alive], 109 [5 of 6 alive], 120 % of control
dose: 400.0 mg/kg/injection, schedule: Q01DX009 (ip), vehicle: Klucel (hydroxypropylcellulose) (HPC)
  survivor count: 2 of 6

## Cn1c2nc(-[n+]3ccc(-c4ccccc4)cc3)nc-2c([O-])n(C)c1=O
dose: 400.0 mg/kg/injection, schedule: Q04DX003 (ip), vehicle: saline
  survivor count: 6 of 6

## Cc1ccnc(NCc2ccccn2)c1
[3]
  survivor count: 0 of 6

## c1cc2c(cc1CN1CCOCC1)CCc1cc(CN3CCOCC3)ccc1N2
[4]
  survivor count: 6 of 6
[5]
  survivor count: 6 of 6

## N#CCCN(CCCN1CCOCC1)CN1C(=O)c2ccccc2C1=O
[6]
  survivor count: 1 of 6

## CCn1cc(C(=O)O)c(=O)c2nc(S(C)=O)sc21 (configuration not stated)
[7]
  survivor count: 3 of 6
[8]
  survivor count: 3 of 6

## Cc1ccccc1-c1cc2ccccc2c(N)n1
dose: 25.0 mg/kg/injection, schedule: Q01DX009 (ip), vehicle: saline with Tween-80
  survivor count: 0 of 6

## O=C(O)c1ccccc1-c1c2cc(Br)c(=O)cc-2oc2[c]([Hg])c(O)c(Br)cc12
dose: 50.0 mg/kg/injection, schedule: Q01DX005 (ip), vehicle: saline
  survivor count: 3 of 6
[9]
  survivor count: 0 of 6
[10]
  survivor count: 0 of 6

## CC[N+](C)(CC)CCNC(=O)Nc1ccc(-c2ccc(NC(=O)NCC[N+](C)(CC)CC)c(OC)c2)cc1OC
[1]
  survivor count: 0 of 6
[11]
  survivor count: 6 of 6
[12]
  survivor count: 1 of 6
[13]
  survivor count: 0 of 6

## O=C(c1nc2ccccc2[nH]1)N1CCN(c2ccccc2)CC1
[14]
  survivor count: 5 of 6

## O=c1[nH]nc(Sc2ccccc2)c2nncn12
[3]
  survivor count: 1 of 6

## CCOC(=O)N1CCN(c2cc(C)nc3cc(OC)ccc23)CC1
[8]
  survivor count: 4 of 6

## C=C(OP(=O)(OC)OC)Sc1ccccc1C
dose: 3.0 mg/kg/injection, schedule: Q01DX005 (ip), vehicle: Klucel (hydroxypropylcellulose) (HPC)
  survivor count: 0 of 6
dose: 3.12 mg/kg/injection, schedule: Q01DX005 (ip), vehicle: Klucel (hydroxypropylcellulose) (HPC)
  survivor count: 0 of 6
dose: 6.25 mg/kg/injection, schedule: Q01DX005 (ip), vehicle: Klucel (hydroxypropylcellulose) (HPC)
  survivor count: 0 of 6
dose: 12.5 mg/kg/injection, schedule: Q01DX005 (ip), vehicle: Klucel (hydroxypropylcellulose) (HPC)
  survivor count: 0 of 6
dose: 25.0 mg/kg/injection, schedule: Q01DX005 (ip), vehicle: Klucel (hydroxypropylcellulose) (HPC)
  survivor count: 0 of 6
[14]
  survivor count: 0 of 6
dose: 50.0 mg/kg/injection, schedule: Q01DX009 (ip), vehicle: Klucel (hydroxypropylcellulose) (HPC)
  T/C: 137 % of control
dose: 100.0 mg/kg/injection, schedule: Q01DX005 (ip), vehicle: Klucel (hydroxypropylcellulose) (HPC)
  survivor count: 0 of 6
[2]
  survivor count: 5 of 6
dose: 200.0 mg/kg/injection, schedule: Q01DX005 (ip), vehicle: Klucel (hydroxypropylcellulose) (HPC)
  survivor count: 0 of 6
[6]
  survivor count: 6 of 6

## C[N+]1(C[Si](C)(C)c2ccccc2)CCOCC1
[9]
  survivor count: 4 of 6
[10]
  survivor count: 0 of 6

## Cc1ccc(C(=O)CCN(C)C)cc1
[13]
  survivor count: 0 of 6

## CCOC(=O)CCc1nc(C)ncc1C(=O)OCC
[12]
  survivor count: 6 of 6

## Cc1ccc(Cl)cc1NC(=O)OCCN(C)C(=O)Nc1cc(Cl)ccc1C
dose: 60.0 mg/kg/injection, schedule: Q01DX005 (ip), vehicle: Klucel (hydroxypropylcellulose) (HPC)
  survivor count: 6 of 6
[4]
  survivor count: 6 of 6
[5]
  survivor count: 6 of 6

## CC[N+](CC)=c1ccc2nc3c(cc(NCc4ccccc4)c4ccccc43)oc-2c1
dose: 100.0 mg/kg/injection, schedule: Q01DX005 (ip), vehicle: saline with Tween-80
  survivor count: 4 of 5
[3]
  survivor count: 1 of 5

## N=C(N)SCc1cccc2c(=O)cc(-c3ccccc3)oc12
[12]
  T/C: 130 [5 of 6 alive] and 133 % of control

## CN(C)c1cccc2c(S(=O)(=O)NCCCCCCCCCCCCNS(=O)(=O)c3cccc4c(N(C)C)cccc34)cccc12
dose: 60.0 mg/kg/injection, schedule: Q01DX005 (ip), vehicle: saline with Tween-80
  survivor count: 6 of 6
[7]
  survivor count: 6 of 6

## CC(C)N1COC2Cc3ccccc3CC21 (configuration not stated)
[9]
  survivor count: 0 of 6
[10]
  survivor count: 0 of 6

## CCOc1ccc(NC(=O)C(C(C)N2CCCCC2)N2CCCCC2)cc1 (configuration not stated)
[11]
  survivor count: 6 of 6

## COc1cc(C2=N/C(=C\c3ccccc3O)C(=O)O2)cc(OC)c1OC
[13]
  survivor count: 6 of 6

## COC1=CC(=O)C(CO)=CC1=O
[1]
  survivor count: 3 of 6
[11]
  survivor count: 0 of 6
[12]
  survivor count: 0 of 6
[13]
  survivor count: 0 of 6

— PubChem BioAssay AID330 (DTP/NCI, 2004)
